# Primary screen of a compound library

Source: ChEMBL document CHEMBL3988442, “University of Dundee, Small-Polar-MMV Screening Library” (2021).

Mtb cholesterol medium: 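Growth of Mycobacterium tuberculosis over 4 days (cholesterol / DPPC medium with tyloxapol); the read-out is not stated. Tested at 500 µM. The record gives no direction; compounds that gave an IC50 in retests scored well above the rest, so higher reads as more growth inhibition. Of about 18,000 compounds tested this way, about 900 (5%) reached 50% or more in at least one test.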
Mtb glucose medium: 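Phenotypic screen: M. tuberculosis growth, glucose 7H9 medium, 3 days; the read-out is not stated. Concentration: 500 µM. Higher reads as more growth inhibition (inferred: compounds with an IC50 in retests scored well above the rest). Size under these conditions: about 18,000 compounds, about 1,400 of them at 50% or above in at least one test.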

The filed quantity is “Percent Effect” (%).
The controls that fix the scale are not given in the record; negative values are as filed.
The compounds are a random part of those screened.

With O=S1(=O)CCNC(C2CCC2)C1 (stereo unspecified) the screen gave Mtb cholesterol medium: -33.51%; Mtb glucose medium: -7.704%.
With CCn1cc(CN2CCN(C)CC2(C)C)cn1 the screen gave Mtb cholesterol medium: -12.72%; Mtb glucose medium: -11.2%.
With CC1CCN(CC(O)CNC(=O)NCC(F)(F)F)CC1 (stereo unspecified) the screen gave Mtb cholesterol medium: 0.9128%; Mtb glucose medium: 4.663%.
With Fc1cnc(N2CCNCC2)nc1 the screen gave Mtb cholesterol medium: 4.708%; Mtb glucose medium: 22.15%.
With CC(C)N(C)S(=O)(=O)NCCCN(C)c1ccccc1 the screen gave Mtb cholesterol medium: 77.47%; Mtb glucose medium: 79.04%.
With CCc1ncnc(N(CC)CC(N)=O)c1F the screen gave Mtb cholesterol medium: 5.287%; Mtb glucose medium: 11.01%.
With O=C(NCCN1CCCCC1)c1cnccn1 the screen gave Mtb cholesterol medium: 9.254%; Mtb glucose medium: 9.377%.
With O=C(NCCCNCc1cccnc1)c1ccsc1 the screen gave Mtb cholesterol medium: 13.3%; Mtb glucose medium: 18.88%.
With CC(C)c1noc(N2CCS(=O)(=O)CC2)n1 the screen gave Mtb cholesterol medium: -4.759%; Mtb glucose medium: -5.436%.
With CCOCc1nnc(C(C)N)o1 (stereo unspecified) the screen gave Mtb cholesterol medium: -0.4707%; Mtb glucose medium: -0.3396%.
With CCOc1ccc(-n2c(CCN)n[nH]c2=O)cc1 the screen gave Mtb cholesterol medium: 5.344%; Mtb glucose medium: -3.779%.
With COCCNC(=O)c1cnn(C2CCS(=O)(=O)C2)c1C (stereo unspecified) the screen gave Mtb cholesterol medium: 1.934%; Mtb glucose medium: 2.756%.
With O=S(=O)(NCCc1nc(-c2ccccc2)n[nH]1)C1CC1 the screen gave Mtb cholesterol medium: -2.248%; Mtb glucose medium: 26.03%.
With CC(NCCn1cc(Br)cn1)c1ccncc1 (stereo unspecified) the screen gave Mtb cholesterol medium: -0.206%; Mtb glucose medium: 9.82%.
With CN(C)CCCNC1CCS(=O)(=O)C1 (stereo unspecified) the screen gave Mtb cholesterol medium: -4.853%; Mtb glucose medium: -8.123%.
With CC(=O)c1ccccc1NC(=O)CN1CC[C@H](N)C1 the screen gave Mtb cholesterol medium: 22.53%; Mtb glucose medium: 56.22%.
With NC(=O)NCC(=O)Nc1cccc(Cl)c1 the screen gave Mtb cholesterol medium: -14.91%; Mtb glucose medium: -11.91%.
With COc1ccc(C(=O)N2CCNCC2)cc1OC the screen gave Mtb cholesterol medium: -2.193%; Mtb glucose medium: -0.9679%.
With Nc1nnc(SCc2cn3ccccc3n2)[nH]1 the screen gave Mtb cholesterol medium: -5.597%; Mtb glucose medium: -1.096%.
With CC(C)(N)c1nc2c(c(=O)[nH]1)CCCC2 the screen gave Mtb cholesterol medium: -0.1549%; Mtb glucose medium: 10.82%.
With CCSCCNC(=O)c1csc(C(C)=O)c1 the screen gave Mtb cholesterol medium: 15.65%; Mtb glucose medium: 39.95%.
With Cn1ccc(C2CCCCN2)n1 (stereo unspecified) the screen gave Mtb cholesterol medium: 0.05827%; Mtb glucose medium: -11.78%.
With CNC(=O)NCC(=O)Nc1cc(Br)c(F)cc1C the screen gave Mtb cholesterol medium: 6.894%; Mtb glucose medium: 10.23%.
With O=C1CCCCCN1CCCNC(=O)N1CCSCC1 the screen gave Mtb cholesterol medium: -19.26%; Mtb glucose medium: -0.3301%.
With CCNc1ncc(C(=O)N(C)Cc2ccsc2)cn1 the screen gave Mtb cholesterol medium: 26.61%; Mtb glucose medium: 57.77%.
With CCN(Cc1nc(COC)no1)C(=O)c1ccoc1C the screen gave Mtb cholesterol medium: -10.12%; Mtb glucose medium: -6.708%.
With COC[C@@H]1CN(C(=O)c2cccc(F)c2)C[C@H]1C(N)=O the screen gave Mtb cholesterol medium: -18.86%; Mtb glucose medium: 7.677%.
With NCc1noc(-c2cccc(Br)c2)n1 the screen gave Mtb cholesterol medium: 66.51%; Mtb glucose medium: 62.02%.
With NC(=O)CC1CCCCN1Cc1cccc(O)c1 (stereo unspecified) the screen gave Mtb cholesterol medium: 5.744%; Mtb glucose medium: 3.88%.
With CCCN1CC(NC(=O)c2cc(C(C)C)on2)CC1=O (stereo unspecified) the screen gave Mtb cholesterol medium: 3.003%; Mtb glucose medium: 24.37%.
With NCCn1cc(C(=O)N2CCCCCCC2)nn1 the screen gave Mtb cholesterol medium: 11.36%; Mtb glucose medium: 22.28%.
With CC(C)(N)CN1CCCC1 the screen gave Mtb cholesterol medium: 4.301%; Mtb glucose medium: 1.595%.
With CC(CCn1cccn1)OC(=O)c1cccnc1 (stereo unspecified) the screen gave Mtb cholesterol medium: 8.214%; Mtb glucose medium: 19.32%.
With Cc1cc(F)cc(NC(=O)NC[C@@H]2CCCN2)c1 the screen gave Mtb cholesterol medium: 5.555%; Mtb glucose medium: 3.976%.
With CCC(=O)N1CCCN(c2cncc(Cl)n2)CC1 the screen gave Mtb cholesterol medium: 8.961%; Mtb glucose medium: 27.72%.
With CCC(O)CN1CCC(OC2CCOCC2)CC1 (stereo unspecified) the screen gave Mtb cholesterol medium: -13.99%; Mtb glucose medium: -8.954%.
With NS(=O)(=O)c1ccc(N2C(=O)C=CC2=O)cc1 the screen gave Mtb cholesterol medium: 10.27%; Mtb glucose medium: 22.62%.
With CCCNC(=O)Cn1ccnc1SC the screen gave Mtb cholesterol medium: 6.352%; Mtb glucose medium: 4.925%.
With Cc1nccn1CCCN1CCN(S(C)(=O)=O)CC1 the screen gave Mtb cholesterol medium: 12.51%; Mtb glucose medium: 7.642%.

The last 3 entries again:

| SMILES | Mtb cholesterol medium | Mtb glucose medium |
|---|---|---|
| `NS(=O)(=O)c1ccc(N2C(=O)C=CC2=O)cc1` | 10.27% | 22.62% |
| `CCCNC(=O)Cn1ccnc1SC` | 6.352% | 4.925% |
| `Cc1nccn1CCCN1CCN(S(C)(=O)=O)CC1` | 12.51% | 7.642% |